In PubChem BioAssay AID248 (DTP/NCI, 2004) one finds T/C and survivor count data, which are given here for 14 compounds.

The list shows only some results of the screen, not a fair sample: it covers a few groups of compounds. Other doses and runs of a compound may be missing. T/C is the treated group as % of the vehicle group. Some doses have a count of surviving animals in place of a T/C: the source files T/C as zero there, which appears to mark a toxic dose or a test without result, not a measured value. Some survivor counts are full or nearly so, which does not show that the dose was tolerated: survival well below the control is almost never listed, so the zero probably covers shortened survival too. Survivors were counted at the toxicity check, usually on the fifth day, unless a day is given; later deaths do not show. Schedule codes are those of the source, read here as Q, the interval in days (D) or hours (H), X, the number of doses. Some doses were run more than once; the values are given in rising order. Where survival is the endpoint, this PubChem deposit counts one and a half times the control or more as active, and values a quarter to a half above the control carry no call in these data; other NCI protocols may use other cut-offs. Some T/C values are marked as having no survivor count here; that says nothing about deaths at the dose. Some T/C values are followed by the survivors on the day toxicity was checked, most often the fifth; without a count or a note in brackets, all were alive then.

For this assay, the system named is L1210 leukemia ip in BDF1 mice, survival T/C. As to the kind of experiment: NCI In Vivo Anticancer Drug Screen. Data for tumor model L1210 Leukemia (intraperitoneal) in B6D2F1 (BDF1) mice. Particulars: T/C endpoint: mean survival time, higher T/C = longer survival.
Where [1] appears, read: dose: 6.25 mg/kg/injection, schedule: Q04DX003 (ip), vehicle: Klucel (hydroxypropylcellulose) (HPC).
Where [2] appears, read: dose: 12.5 mg/kg/injection, schedule: Q04DX003 (ip), vehicle: Klucel (hydroxypropylcellulose) (HPC).
Where [3] appears, read: dose: 100.0 mg/kg/injection, schedule: Q04DX003 (ip), vehicle: Klucel (hydroxypropylcellulose) (HPC).
Where [4] appears, read: dose: 200.0 mg/kg/injection, schedule: Q04DX003 (ip), vehicle: Klucel (hydroxypropylcellulose) (HPC).
The mark [5] stands for this setting: dose: 400.0 mg/kg/injection, schedule: Q04DX003 (ip), vehicle: Klucel (hydroxypropylcellulose) (HPC).
[6] abbreviates: dose: 100.0 mg/kg/injection, schedule: Q01DX001 (ip), vehicle: saline.
[7] abbreviates: dose: 200.0 mg/kg/injection, schedule: Q01DX001 (ip), vehicle: saline.
[8] abbreviates: dose: 400.0 mg/kg/injection, schedule: Q01DX001 (ip), vehicle: saline.
[9] abbreviates: dose: 100.0 mg/kg/injection, schedule: Q04DX003 (ip), vehicle: saline with Tween-80.
[10] abbreviates: dose: 200.0 mg/kg/injection, schedule: Q04DX003 (ip), vehicle: saline with Tween-80.
[11] abbreviates: dose: 400.0 mg/kg/injection, schedule: Q04DX003 (ip), vehicle: saline with Tween-80.
Where [12] appears, read: dose: 25.0 mg/kg/injection, schedule: Q01DX009 (ip), vehicle: Klucel (hydroxypropylcellulose) (HPC).
The mark [13] stands for this setting: dose: 75.0 mg/kg/injection, schedule: Q01DX009 (ip), vehicle: Klucel (hydroxypropylcellulose) (HPC).
[14] abbreviates: dose: 25.0 mg/kg/injection, schedule: Q04DX003 (ip), vehicle: Klucel (hydroxypropylcellulose) (HPC).
[15] abbreviates: dose: 50.0 mg/kg/injection, schedule: Q04DX003 (ip), vehicle: Klucel (hydroxypropylcellulose) (HPC).
Setting [16] is: dose: 50.0 mg/kg/injection, schedule: Q04DX003 (ip), vehicle: saline with Tween-80.
Setting [17] is: dose: 12.5 mg/kg/injection, schedule: Q04DX003 (ip), vehicle: saline with Tween-80.
The mark [18] stands for this setting: dose: 25.0 mg/kg/injection, schedule: Q04DX003 (ip), vehicle: saline with Tween-80.

Turning to `CC1(C)CC[P+](c2ccccc2)(c2ccccc2)c2ccccc21.F[P-](F)(F)(F)(F)F`, the T/C by setting is: (dose: 12.5 mg/kg/injection, schedule: Q01DX009 (ip), vehicle: saline with Tween-80) 108 % of control; (dose: 25.0 mg/kg/injection, schedule: Q01DX009 (ip), vehicle: saline with Tween-80) 108 % of control; (dose: 50.0 mg/kg/injection, schedule: Q01DX009 (ip), vehicle: saline with Tween-80) 100 [2 of 3 alive] and 105 % of control. Also, the survivor count is, setting by setting: (dose: 100.0 mg/kg/injection, schedule: Q01DX009 (ip), vehicle: saline with Tween-80) 0 of 3; (dose: 200.0 mg/kg/injection, schedule: Q01DX009 (ip), vehicle: saline with Tween-80) 0 of 3.

Turning to `ClCCN1Cc2ccccc2Cc2ccccc2C1`, the T/C is 92 % of control (dose: 3.12 mg/kg/injection, schedule: Q04DX003 (ip), vehicle: Klucel (hydroxypropylcellulose) (HPC)); 92 % of control under setting [1]; 92 % of control under setting [2]. Besides, the survivor count reads like this: under setting [3], 0 of 6; under setting [4], 0 of 6; under setting [5], 0 of 6.

Take `O=C(C(=O)c1ccc([N+](=O)[O-])cc1[N+](=O)[O-])c1ccc([N+](=O)[O-])cc1[N+](=O)[O-]`: the T/C reads like this: under setting [6], 100 % of control; under setting [7], 100 % of control; under setting [8], 94 % of control.

Regarding `CCOP(=O)(Nc1ccccc1)OCC`, the T/C is 97 % of control under setting [3], 97 % of control under setting [4] and 95 % of control under setting [5].

For `CCP1(=O)Nc2ccccc2N1`, the T/C reads like this: under setting [9], 94 % of control [survivor count not shown]; under setting [10], 100 % of control [survivor count not shown]; under setting [11], 104 % of control [survivor count not shown].

As for `COP(OC)N1CC1`, the survivor count is, setting by setting: under setting [6], 3 of 6; under setting [7], 0 of 6; under setting [8], 0 of 6.

For `O=P(NC(=S)NC12CC3CC(CC(C3)C1)C2)(Oc1ccccc1)Oc1ccccc1`, the T/C is 94 % of control under setting [12]; 92 % of control (dose: 50.0 mg/kg/injection, schedule: Q01DX009 (ip), vehicle: Klucel (hydroxypropylcellulose) (HPC)); 97 % of control under setting [13]; 89 % of control [5 of 6 alive] (dose: 150.0 mg/kg/injection, schedule: Q01DX009 (ip), vehicle: Klucel (hydroxypropylcellulose) (HPC)). Further, the survivor count under setting [13] was 3 of 6 and the survivor count (dose: 300.0 mg/kg/injection, schedule: Q01DX009 (ip), vehicle: Klucel (hydroxypropylcellulose) (HPC)) is listed as 3 of 6.

For `O=[N+]([O-])c1cc([N+](=O)[O-])c(OCC(O)CO)c([N+](=O)[O-])c1` (stereo not given), the T/C by setting is: under setting [14], 107 % of control; under setting [15], 107 % of control; under setting [3], 97 and 107 % of control. In addition, the survivor count under setting [4] is 6 of 6 and the survivor count under setting [5] is on record as 6 of 6.

`Cc1cc([N+](=O)[O-])cc([N+](=O)[O-])c1O`: the T/C (dose: 25.0 mg/kg/injection, schedule: Q01DX009 (ip), vehicle: other) was 90 % of control and the T/C (dose: 100.0 mg/kg/injection, schedule: Q01DX009 (ip), vehicle: other) was 95 % of control [4 of 6 alive]. The survivor count is recorded as 5 of 6 (dose: 50.0 mg/kg/injection, schedule: Q01DX009 (ip), vehicle: other); 0 of 6 under setting [16]; 0 of 6 under setting [9]; 0 of 6 under setting [10].

Consider `ClP1(Cl)=NP(Cl)(Cl)=NP(Cl)(Oc2ccccc2)=N1` (stereo not given), for which the T/C is, setting by setting: (dose: 6.25 mg/kg/injection, schedule: Q04DX003 (ip), vehicle: saline with Tween-80) 98 % of control; under setting [17], 93 % of control; under setting [18], 98 % of control.

Turning to `CCN(CC)c1ccc([N+]#N)cc1.F[P-](F)(F)(F)(F)F`, the T/C is, setting by setting: (dose: 0.75 mg/kg/injection, schedule: Q01DX009 (ip), vehicle: saline with Tween-80) 101 % of control; (dose: 1.5 mg/kg/injection, schedule: Q01DX009 (ip), vehicle: saline with Tween-80) 104 % of control; (dose: 1.5 mg/kg/injection, schedule: Q04DX003 (ip), vehicle: saline with Tween-80) 102 % of control; (dose: 3.0 mg/kg/injection, schedule: Q01DX009 (ip), vehicle: saline with Tween-80) 109 % of control; (dose: 3.0 mg/kg/injection, schedule: Q04DX003 (ip), vehicle: saline with Tween-80) 96 % of control. The survivor count by setting is: (dose: 6.0 mg/kg/injection, schedule: Q04DX003 (ip), vehicle: saline with Tween-80) 3 of 6; under setting [17], 0 of 6; under setting [18], 0 of 6; under setting [16], 0 of 6; under setting [9], 0 of 6; under setting [10], 0 of 6. The survivor count under setting [11] is recorded as 0 of 6.

As for `C=CCCC[P+](CC)(c1ccccc1)c1ccccc1.F[P-](F)(F)(F)(F)F`, the T/C under setting [1] is 101 % of control and the T/C under setting [2] is 91 % of control. Moreover, the survivor count is, setting by setting: under setting [14], 3 of 6; under setting [15], 0 of 6 and 1 of 6; under setting [3], 0 of 6; under setting [4], 0 of 6; under setting [5], 0 of 6.

As for `COc1cc(CNCCCl)cc(OC)c1OC`, the T/C (dose: 50.0 mg/kg/injection, schedule: Q01DX001 (ip), vehicle: saline) is 119 % of control; the T/C under setting [6] is 107 % of control; the T/C under setting [7] was 104 % of control; the T/C under setting [8] is 104 % of control.

In the case of `FC1(F)SC2C3CCC(C3)C2C1(F)Cl` (stereo not given), the T/C is 91 % of control (dose: 0.75 mg/kg/injection, schedule: Q01DX009 (ip), vehicle: Klucel (hydroxypropylcellulose) (HPC)); 96 % of control [5 of 6 alive] (dose: 1.5 mg/kg/injection, schedule: Q01DX009 (ip), vehicle: Klucel (hydroxypropylcellulose) (HPC)); 98 % of control [5 of 6 alive] (dose: 6.0 mg/kg/injection, schedule: Q04DX003 (ip), vehicle: Klucel (hydroxypropylcellulose) (HPC)); 101 % of control (dose: 12.0 mg/kg/injection, schedule: Q04DX003 (ip), vehicle: Klucel (hydroxypropylcellulose) (HPC)); 107 % of control [4 of 6 alive] under setting [14]. The survivor count was 3 of 6 (dose: 3.0 mg/kg/injection, schedule: Q01DX009 (ip), vehicle: Klucel (hydroxypropylcellulose) (HPC)); 0 of 6 (dose: 6.25 mg/kg/injection, schedule: Q01DX009 (ip), vehicle: Klucel (hydroxypropylcellulose) (HPC)); 1 of 6 (dose: 12.5 mg/kg/injection, schedule: Q01DX009 (ip), vehicle: Klucel (hydroxypropylcellulose) (HPC)); 0 of 6 under setting [12]; 0 of 6 under setting [14]; 1 of 6 under setting [15]. Moreover, the survivor count is 0 of 6 under setting [3], 0 of 6 under setting [4] and 0 of 6 under setting [5].
